# The list shows a part of the results. Single values are uncertain, as repeats are few or missing.
# Test system: A2780
# Experiment: cell growth inhibition ratio vs untreated control (CCK8); higher = stronger inhibition of cell viability
# Conditions: 10 µM; 48 h
# Experimental: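 Natural product library (Topscience) screened at 10 µM final concentration for 48 h on ovarian cancer A2780 cells and patient-derived ovarian cancer cells (PDC) in 96-well plates; viability read by CCK8 and reported as inhibition ratio (%) relative to untreated control. Single-dose primary screen.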
row,SMILES,cell growth inhibition ratio [%]
1,CC(C)CCCCC(=O)N[C@@H](CCN)C(=O)N[C@@H](CN[C@@H](CCN)C(=O)N[C@H]1CCNC(=O)[C@H]([C@@H](C)O)NC(=O)[C@H](CCN)NC(=O)[C@H](CCN)NC(=O)[C@H](CC(C)C)NC(=O)[C@@H](CC(C)C)NC(=O)[C@H](CCN)NC1=O)[C@@H](C)O.CCC(C)CCCCC(=O)N[C@@H](CCN)C(=O)N[C@@H](CN[C@@H](CCN)C(=O)N[C@H]1CCNC(=O)[C@H]([C@@H](C)O)NC(=O)[C@H](CCN)NC(=O)[C@H](CCN)NC(=O)[C@H](CC(C)C)NC(=O)[C@@H](CC(C)C)NC(=O)[C@H](CCN)NC1=O)[C@@H](C)O (stereo not given in full) [Colistin sulfate],-4.58
2,Cc1cc(O)cc(O[C@@H]2O[C@H](CO)[C@@H](O)[C@H](O)[C@H]2O)c1 [Orcinol glucoside],23.5
3,CO[C@H]1O[C@@H]2O[C@@]3(C)CC[C@H]4[C@H](C)CC[C@@H]([C@H]1C)[C@@]24OO3 [Artemether],-24.8
4,CC(C)[C@H](NC(=O)[C@H](CC(=O)O)NC(=O)[C@H](CCCCN)NC(=O)[C@@H](N)CCCN=C(N)N)C(=O)N[C@@H](Cc1ccc(O)cc1)C(=O)O [Thymopentin],-2.25
5,CC[C@H](C)C(=O)O[C@H]1CCC=C2C=C[C@H](C)[C@H](CC[C@@H]3C[C@@H](O)CC(=O)O3)[C@H]21 [Mevastatin],65.8
6,C[C@@H]1O[C@@H](O[C@H]2[C@H](OC(=O)[C@]34CCC(C)(C)C[C@H]3C3=CC[C@@H]5[C@@]6(C)C[C@H](O)[C@H](O[C@@H]7O[C@H](CO)[C@@H](O)[C@H](O)[C@H]7O)[C@@](C)(CO)[C@@H]6CC[C@@]5(C)[C@]3(C)CC4)O[C@H](CO)[C@@H](O)[C@@H]2O)[C@H](O)[C@H](O)[C@H]1O[C@@H]1OC[C@@H](O)[C@H](O)[C@H]1O [Polygalasaponin F],8.7
7,O=c1cc(-c2ccc(O)c(O)c2)oc2cc(O)cc(O)c12 [Luteolin],-2.41
8,N[C@H]1C(O)O[C@H](CO)[C@@H](O)[C@@H]1O (stereo not given in full) [Glucosamine],8.69
9,CC[C@H](CC[C@@H](C)[C@H]1CC[C@H]2[C@@H]3CC=C4C[C@@H](O)CC[C@]4(C)[C@H]3CC[C@]12C)C(C)C [Beta-Sitosterol],-6.4
10,O=c1ccc2cc3ccoc3cc2o1 [Psoralen],0.767
11,CC1(C)CCCC2(C)OC(=O)C=C12 (stereo not given) [Dihydroactinidiolide],2.03
12,"CC(=O)c1ccc(O)cc1O [2,4-Dihydroxyacetophenone]",4.37
13,C[N+](C)(C)CC(O)CC(=O)[O-] (stereo not drawn) [L(-)-Carnitine],4.6
14,COc1cc2c(=O)c3c(O)c([C@@H]4O[C@H](CO[C@@H]5OC[C@](O)(CO)[C@H]5O)[C@@H](O)[C@H](O)[C@H]4O)c(O)cc3oc2cc1O [polygalaxanthone III],13
15,CCCCCCCCCCCC1=C(O)C(=O)C=C(O)C1=O [Embelin],10.6
16,CC(=O)OC/C=C(C)/C=C/C=C(C)/C=C/C1=C(C)CCCC1(C)C [Retinyl acetate],-16.1
17,O=C(O)CCCC[C@@H]1CCSS1 [Thioctic acid],10.9
18,O=c1c2cc(O)c(O)cc2oc2cc(O)c([C@@H]3O[C@H](CO)[C@@H](O)[C@H](O)[C@H]3O)c(O)c12 [Mangiferin],8.79
19,COc1ccc([C@@H]2CC(=O)c3c(O)cc(O)cc3O2)cc1O [Hesperetin],1.85
20,C[C@]12CCC(=O)C=C1CC[C@@H]1[C@@H]2C(=O)C[C@@]2(C)[C@H]1CC[C@]2(O)C(=O)CO [Cortisone],1.96

row,SMILES,cell growth inhibition ratio [%]
1,CC(=O)c1c(O)c(C)c(O)c2c1OC1=CC(=O)C(C(C)=O)C(=O)C12C (stereo not given) [Usnic Acid],-17.6
2,COc1ccc(C[C@H]2COC(=O)[C@@H]2Cc2ccc(O[C@@H]3O[C@H](CO)[C@@H](O)[C@H](O)[C@H]3O)c(OC)c2)cc1OC [Arctiin],40.3
3,OC1COC(O)C(O)C1O (stereo not drawn) [L(+)-Arabinose],4.11
4,O=c1cc(-c2ccc(O)c(-c3c(O)cc(O)c4c(=O)cc(-c5ccc(O)cc5)oc34)c2)oc2cc(O)cc(O)c12 [Amentoflavone],20.1
5,C[C@@H]1O[C@@H](O[C@H]2[C@H](O[C@H]3[C@H](O[C@H]4CC[C@]5(C)[C@H]6CC=C7[C@@H]8CC(C)(C)CC[C@]8(C(=O)O)CC[C@@]7(C)[C@]6(C)CC[C@H]5C4(C)C)OC[C@H](O)[C@@H]3O)O[C@H](CO)[C@@H](O)[C@@H]2O)[C@H](O)[C@H](O)[C@H]1O [Raddeanin(Anemodeanin) A],93.5
6,Cc1[nH]ccc2c1[nH]c1cc(=O)ccc12 [Harmol],55.7
7,CC(C)(O)[C@H]1CC[C@@](C)(C2[C@@H](O)C[C@@]3(C)[C@@H]4C[C@H](O)C5C(C)(C)[C@@H](O)CCC56CC46CC[C@]23C)O1 (stereo not given in full) [Cycloastragenol],1.21
8,C[C@H]1COC2=C1C(=O)C(=O)c1c2ccc2c1CCCC2(C)C [Cryptotanshinone],45.1
9,CC[C@H](C)CCCCC(=O)N[C@@H](CCNCS(=O)(=O)O)C(=O)N[C@H](C(=O)N[C@@H](CCNCS(=O)(=O)O)C(=O)N[C@H]1CCNC(=O)[C@H]([C@@H](C)O)NC(=O)[C@H](CCNCS(=O)(=O)O)NC(=O)[C@H](CCN)NC(=O)[C@H](CC(C)C)NC(=O)[C@@H](CC(C)C)NC(=O)[C@H](CCNCS(=O)(=O)O)NC1=O)[C@@H](C)O [Colistimethate Sodium],0.217
10,"C[C@H](O)[C@H]1CC[C@H]2[C@@H]3CC[C@@H]4C[C@H](O)CC[C@]4(C)[C@H]3CC[C@]12C [5Beta-Pregnane-3Alpha,20alpha-Diol]",36
11,C=C(C)[C@@H]1CC[C@]2(C)CC[C@]3(C)[C@H](CC[C@@H]4[C@@]5(C)CC[C@H](O)C(C)(C)[C@@H]5CC[C@]43C)[C@@H]12 [Lupeol],-8.23
12,C[C@H]1[C@@H](O)O[C@@H]2O[C@@]3(C)CC[C@H]4[C@H](C)CC[C@@H]1[C@@]24OO3 [Dihydroartemisinin],71.1
13,CN1C(=O)CC[C@H]1c1cccnc1 [(-)-Cotinine],15.2
14,O=c1c2ccccc2oc2ccccc12 [Xanthone],5.38
15,O=C(O)c1cc(O)c2c(c1)[C@@H]([C@H]1c3cc(C(=O)O)cc(O)c3C(=O)c3c(O[C@@H]4O[C@H](CO)[C@@H](O)[C@H](O)[C@H]4O)cccc31)c1cccc(O[C@@H]3O[C@H](CO)[C@@H](O)[C@H](O)[C@H]3O)c1C2=O [Sennoside B],32.9
16,O=c1c(O)c(-c2ccc(O)cc2O)oc2cc(O)cc(O)c12 [Morin],5.81
17,O=C[C@H](O)[C@@H](O)[C@H](O)CO (racemic) [DL-Xylose],-0.842
18,COc1c(C)c2c(c(O)c1C/C=C(\C)CCC(=O)O)C(=O)OC2 [Mycophenolic acid],80.5
19,COc1cccc2oc(-c3ccccc3)cc(=O)c12 [5-methoxyflavone],10.2
20,C[C@@H]1O[C@@H](O[C@H]2[C@H](O[C@H]3CC[C@@]4(C)[C@@H](CC[C@]5(C)[C@@H]4CC=C4[C@@H]6CC(C)(C)CC[C@]6(C(=O)O[C@@H]6O[C@H](CO[C@@H]7O[C@H](CO)[C@@H](O)[C@H](O)[C@H]7O)[C@@H](O)[C@H](O)[C@H]6O)CC[C@]45C)[C@]3(C)CO)OC[C@H](O)[C@@H]2O)[C@H](O)[C@H](O[C@@H]2O[C@H](CO)[C@@H](O)[C@H](O)[C@H]2O)[C@H]1O [macranthoidin A],5.34

# Single values from the results shown.
# cell growth inhibition ratio [%], O=c1c2ccccc2oc2ccccc12 [Xanthone] reads 5.38
# cell growth inhibition ratio [%], O=c1c(O)c(-c2ccc(O)cc2O)oc2cc(O)cc(O)c12 [Morin] reads 5.81

# — the supplement of paper PMC10373366
